The list shows only some results of the screen, not a fair sample: it is rich in T/C values a quarter to a half above the control, in often repeated tests (any T/C) and in doses without a T/C. Other doses and runs of a compound stand elsewhere. T/C is the treated group as % of the vehicle group. Schedules are NCI's codes, read here as Q, the interval in days (D) or hours (H), X, the number of doses. Some entries give survivors of the animals treated and no T/C: the source holds a T/C of zero for them, seemingly a mark for toxic or unscored doses. Some doses without a T/C left all or most animals alive at the check, yet need not have been tolerated: the source hardly ever lists a survival T/C far under the control, and the zero likely stands for such cases as well. Survivors were counted at the toxicity check, usually on the fifth day, unless a day is given; later deaths do not show. Where survival is the endpoint, the PubChem record calls one and a half times the control and up active, and a quarter to a half above the control has no call in these data; cut-offs in other NCI protocols can differ. Some T/C values are followed by the survivors on the day toxicity was checked, most often the fifth; without a count, all were alive then.
Test system: Lewis lung carcinoma i.m., BDF1 mice, T/C %
Test: NCI In Vivo Anticancer Drug Screen. Data for tumor model Lewis Lung Carcinoma (intramuscular) in B6D2F1 (BDF1) mice
Outline: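 Antitumour activity is assessed in transplanted-tumour mice. Endpoint is survival or tumour size, normalised to vehicle-dosed controls (T/C).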

Question: How did the T/C (T/C endpoint: mean tumor weight (est.), dose: 25.0 micrograms/kg/injection, schedule: Q01DX011 (ip), vehicle: saline with Tween-80, evaluated on day 12, higher T/C = larger tumour) turn out when CCN1/C(=C/C(C)=C/c2sc3ccccc3[n+]2CC)Sc2ccccc21 was run?
Answer: The T/C was 127 % of control.

Question: What about the survivor count (T/C endpoint: mean tumor weight (est.), dose: 200.0 micrograms/kg/injection, schedule: Q01DX011 (ip), vehicle: saline with Tween-80, higher T/C = larger tumour) of the same molecule?
Answer: The survivor count was 4 of 8.

Question: What about the survivor count (T/C endpoint: median survival time, dose: 25.0 micrograms/kg/injection, schedule: Q01DX011 (ip), vehicle: saline with Tween-80, higher T/C = longer survival) of the same molecule?
Answer: The survivor count was 8 of 8.

Question: And the survivor count (T/C endpoint: median survival time, dose: 200.0 micrograms/kg/injection, schedule: Q01DX011 (ip), vehicle: saline with Tween-80, higher T/C = longer survival)?
Answer: The survivor count was 4 of 8.

Question: And the survivor count (T/C endpoint: median survival time, dose: 400.0 micrograms/kg/injection, schedule: Q01DX011 (ip), vehicle: saline with Tween-80, higher T/C = longer survival)?
Answer: Its survivor count is 0 of 8.

Question: What does the source list for Cc1ccc2c(C)c3ccc4ccccc4c3c[n+]2c1?
Answer: survivor count (T/C endpoint: mean tumor weight (est.), dose: 75.0 mg/kg/injection, schedule: Q01DX011 (ip), vehicle: saline, higher T/C = larger tumour): 3 of 8; survivor count (T/C endpoint: median survival time, dose: 75.0 mg/kg/injection, schedule: Q01DX011 (ip), vehicle: saline, higher T/C = longer survival): 3 of 8; survivor count (T/C endpoint: median survival time, dose: 150.0 mg/kg/injection, schedule: Q01DX011 (ip), vehicle: saline, higher T/C = longer survival): 0 of 8; survivor count (T/C endpoint: median survival time, dose: 300.0 mg/kg/injection, schedule: Q01DX011 (ip), vehicle: saline, higher T/C = longer survival): 3 of 8; survivor count (T/C endpoint: median survival time, dose: 600.0 mg/kg/injection, schedule: Q01DX011 (ip), vehicle: saline, higher T/C = longer survival): 0 of 8

Question: How did the survivor count (T/C endpoint: mean tumor weight (est.), dose: 84.0 mg/kg/injection, schedule: Q01DX011 (ip), vehicle: saline, higher T/C = larger tumour) turn out when CCN(CCO)CCNc1ccc(C)c2sc3ccccc3c(=O)c12 was run?
Answer: Its survivor count is 3 of 8.

Question: And the survivor count (T/C endpoint: median survival time, dose: 84.0 mg/kg/injection, schedule: Q01DX011 (ip), vehicle: saline, higher T/C = longer survival)?
Answer: The survivor count was 3 of 8.

Question: And the survivor count (T/C endpoint: median survival time, dose: 168.0 mg/kg/injection, schedule: Q01DX011 (ip), vehicle: saline, higher T/C = longer survival)?
Answer: The survivor count was 0 of 8.

Question: N[C@H](C(=O)O)[C@H]1ON=C(Cl)[C@@H]1O was tested. Which survivor count (T/C endpoint: median survival time, dose: 32.0 mg/kg/injection, schedule: Q01DX013 (ip), vehicle: saline, higher T/C = longer survival) did it give?
Answer: The survivor count was 8 of 8.

Question: And the survivor count (T/C endpoint: median survival time, dose: 64.0 mg/kg/injection, schedule: Q01DX013 (ip), vehicle: saline, higher T/C = longer survival)?
Answer: Its survivor count is 8 of 8.

Question: And the survivor count (T/C endpoint: median survival time, dose: 128.0 mg/kg/injection, schedule: Q01DX013 (ip), vehicle: saline, higher T/C = longer survival)?
Answer: Its survivor count is 8 of 8.

Question: And the survivor count (T/C endpoint: median survival time, dose: 256.0 mg/kg/injection, schedule: Q01DX013 (ip), vehicle: saline, higher T/C = longer survival)?
Answer: The survivor count was 8 of 8.

Question: With CC1=C2C(=C[C@@](C)(CO)[C@@H]2O)C(=O)[C@](C)(O)C12CC2 as the molecule, how does the survivor count (T/C endpoint: mean tumor weight, dose: 0.05 mg/kg/injection, schedule: Q01DX011 (ip), vehicle: other, higher T/C = larger tumour) read?
Answer: The survivor count was 1 of 8.

Question: Which survivor count (T/C endpoint: mean tumor weight (est.), dose: 1.56 mg/kg/injection, schedule: Q01DX011 (ip), vehicle: Klucel (hydroxypropylcellulose) (HPC), higher T/C = larger tumour) does the source give for CCn1cnc2c(=S)nc[nH]c21 here?
Answer: The survivor count was 4 of 8.

Question: What about the survivor count (T/C endpoint: mean tumor weight (est.), dose: 3.12 mg/kg/injection, schedule: Q01DX011 (ip), vehicle: Klucel (hydroxypropylcellulose) (HPC), higher T/C = larger tumour) of the same molecule?
Answer: Its survivor count is 5 of 8.

Question: And the survivor count (T/C endpoint: mean tumor weight (est.), dose: 12.5 mg/kg/injection, schedule: Q01DX011 (ip), vehicle: Klucel (hydroxypropylcellulose) (HPC), higher T/C = larger tumour)?
Answer: The survivor count was 4 of 8.

Question: What about the survivor count (T/C endpoint: mean tumor weight, dose: 3.12 mg/kg/injection, schedule: Q01DX011 (ip), vehicle: steroid suspending solution, higher T/C = larger tumour) of the same molecule?
Answer: The survivor count was 2 of 8.

Question: What about the survivor count (T/C endpoint: mean tumor weight, dose: 12.5 mg/kg/injection, schedule: Q01DX011 (ip), vehicle: steroid suspending solution, higher T/C = larger tumour) of the same molecule?
Answer: The survivor count was 4 of 8.

Question: What about the survivor count (T/C endpoint: mean tumor weight, dose: 25.0 mg/kg/injection, schedule: Q01DX011 (ip), vehicle: Klucel (hydroxypropylcellulose) (HPC), higher T/C = larger tumour) of the same molecule?
Answer: The survivor count was 3 of 8.

Question: And the survivor count (T/C endpoint: mean tumor weight, dose: 25.0 mg/kg/injection, schedule: Q01DX011 (ip), vehicle: steroid suspending solution, higher T/C = larger tumour)?
Answer: The survivor count was 5 of 8.

Question: What about the survivor count (T/C endpoint: median survival time, dose: 0.78 mg/kg/injection, schedule: Q01DX011 (ip), vehicle: Klucel (hydroxypropylcellulose) (HPC), higher T/C = longer survival) of the same molecule?
Answer: Its survivor count is 8 of 8.

Question: And the survivor count (T/C endpoint: median survival time, dose: 1.56 mg/kg/injection, schedule: Q01DX011 (ip), vehicle: Klucel (hydroxypropylcellulose) (HPC), higher T/C = longer survival)?
Answer: The survivor count was 4 of 8.

Question: And the T/C (T/C endpoint: median survival time, dose: 1.56 mg/kg/injection, schedule: Q01DX011 (ip), vehicle: steroid suspending solution, higher T/C = longer survival)?
Answer: Its T/C is 129 % of control [7 of 8 alive].

Question: And the survivor count (T/C endpoint: median survival time, dose: 3.12 mg/kg/injection, schedule: Q01DX011 (ip), vehicle: Klucel (hydroxypropylcellulose) (HPC), higher T/C = longer survival)?
Answer: Its survivor count is 5 of 8.

Question: What about the survivor count (T/C endpoint: median survival time, dose: 3.12 mg/kg/injection, schedule: Q01DX011 (ip), vehicle: steroid suspending solution, higher T/C = longer survival) of the same molecule?
Answer: The survivor count was 2 of 8.

Question: And the T/C (T/C endpoint: median survival time, dose: 6.25 mg/kg/injection, schedule: Q01DX011 (ip), vehicle: steroid suspending solution, higher T/C = longer survival)?
Answer: Its T/C is 145 % of control [6 of 8 alive].

Question: What about the survivor count (T/C endpoint: median survival time, dose: 12.5 mg/kg/injection, schedule: Q01DX011 (ip), vehicle: Klucel (hydroxypropylcellulose) (HPC), higher T/C = longer survival) of the same molecule?
Answer: Its survivor count is 4 of 8.

Question: What about the survivor count (T/C endpoint: median survival time, dose: 12.5 mg/kg/injection, schedule: Q01DX011 (ip), vehicle: steroid suspending solution, higher T/C = longer survival) of the same molecule?
Answer: The survivor count was 4 of 8.

Question: What about the survivor count (T/C endpoint: median survival time, dose: 25.0 mg/kg/injection, schedule: Q01DX011 (ip), vehicle: Klucel (hydroxypropylcellulose) (HPC), higher T/C = longer survival) of the same molecule?
Answer: Its survivor count is 3 of 8.

Question: What about the survivor count (T/C endpoint: median survival time, dose: 25.0 mg/kg/injection, schedule: Q01DX011 (ip), vehicle: steroid suspending solution, higher T/C = longer survival) of the same molecule?
Answer: The survivor count was 5 of 8.

Question: And the survivor count (T/C endpoint: median survival time, dose: 50.0 mg/kg/injection, schedule: Q01DX011 (ip), vehicle: Klucel (hydroxypropylcellulose) (HPC), higher T/C = longer survival)?
Answer: The survivor count was 0 of 8.

Question: And the survivor count (T/C endpoint: median survival time, dose: 100.0 mg/kg/injection, schedule: Q01DX011 (ip), vehicle: Klucel (hydroxypropylcellulose) (HPC), higher T/C = longer survival)?
Answer: Its survivor count is 0 of 8.

Question: And the survivor count (T/C endpoint: median survival time, dose: 200.0 mg/kg/injection, schedule: Q01DX011 (ip), vehicle: Klucel (hydroxypropylcellulose) (HPC), higher T/C = longer survival)?
Answer: The survivor count was 0 of 8.
